Measured values published in publication PMC11324313.
These are yes or no findings as the source states them, for the method shown. For part of these data: Binding seen in cells or lysates may run through a third protein. Some results given as binding are weak or reduced against the parent protein; the word gives no strength. For part of these data: Where a sequence is shown, tags or fusion partners need not be part of it.

Sequences of proteins named here, by UniProt entry; tags and fusion partners are left off. Residues count along the entry.
UniProt Q9Y4K0, residues 26-774: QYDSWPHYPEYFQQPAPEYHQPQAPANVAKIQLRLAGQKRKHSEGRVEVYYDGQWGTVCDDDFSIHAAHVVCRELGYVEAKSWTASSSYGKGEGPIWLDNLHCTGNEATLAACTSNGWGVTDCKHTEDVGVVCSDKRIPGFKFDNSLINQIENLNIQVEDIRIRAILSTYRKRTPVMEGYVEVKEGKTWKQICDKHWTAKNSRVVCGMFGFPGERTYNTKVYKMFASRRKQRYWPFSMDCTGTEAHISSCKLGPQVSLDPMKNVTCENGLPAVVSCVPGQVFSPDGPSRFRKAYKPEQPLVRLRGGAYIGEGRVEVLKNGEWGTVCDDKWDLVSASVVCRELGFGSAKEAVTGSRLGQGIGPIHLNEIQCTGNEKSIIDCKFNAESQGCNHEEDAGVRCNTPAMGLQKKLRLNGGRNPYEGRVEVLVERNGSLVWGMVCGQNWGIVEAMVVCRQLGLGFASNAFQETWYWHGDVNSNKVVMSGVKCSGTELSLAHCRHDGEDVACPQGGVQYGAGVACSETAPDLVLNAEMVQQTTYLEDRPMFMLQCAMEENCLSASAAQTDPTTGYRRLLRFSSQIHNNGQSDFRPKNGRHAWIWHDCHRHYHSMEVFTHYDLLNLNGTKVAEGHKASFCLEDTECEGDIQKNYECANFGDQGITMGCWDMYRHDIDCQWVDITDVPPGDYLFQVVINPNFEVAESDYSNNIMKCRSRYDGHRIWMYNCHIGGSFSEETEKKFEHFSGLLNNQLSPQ

Experiments:
[1] = target: T1, Biotin-conjugated PEAR1-ECD domain peptide EMI (human) (UniProt Q5VY43); assay: ELISA; biotin-conjugated PEAR1-ECD domain peptides (EMI and EGF-like 1 through EGF-like 15; 10 μg/mL) captured on streptavidin-coated plates; samples 1 hour at 37°C; HRP-conjugated secondary antibodies, TMB, OD 450 nm
T1 sequence (peptide, biotin): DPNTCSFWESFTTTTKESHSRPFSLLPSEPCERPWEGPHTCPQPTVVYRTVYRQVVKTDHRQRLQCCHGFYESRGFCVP

PEAR1-ECD–His (human) [2] = target: T2, PEAR1-ECD–His (human) (UniProt Q5VY43); assay: pull-down; concentrated serum-free supernatant of MDA-MB-231 cells incubated with 15 μg exogenous PEAR1-ECD–His; Dynabeads His-tag; eluate silver stained, differential bands analysed by MS and Western blotting; only the target purified
T2 sequence: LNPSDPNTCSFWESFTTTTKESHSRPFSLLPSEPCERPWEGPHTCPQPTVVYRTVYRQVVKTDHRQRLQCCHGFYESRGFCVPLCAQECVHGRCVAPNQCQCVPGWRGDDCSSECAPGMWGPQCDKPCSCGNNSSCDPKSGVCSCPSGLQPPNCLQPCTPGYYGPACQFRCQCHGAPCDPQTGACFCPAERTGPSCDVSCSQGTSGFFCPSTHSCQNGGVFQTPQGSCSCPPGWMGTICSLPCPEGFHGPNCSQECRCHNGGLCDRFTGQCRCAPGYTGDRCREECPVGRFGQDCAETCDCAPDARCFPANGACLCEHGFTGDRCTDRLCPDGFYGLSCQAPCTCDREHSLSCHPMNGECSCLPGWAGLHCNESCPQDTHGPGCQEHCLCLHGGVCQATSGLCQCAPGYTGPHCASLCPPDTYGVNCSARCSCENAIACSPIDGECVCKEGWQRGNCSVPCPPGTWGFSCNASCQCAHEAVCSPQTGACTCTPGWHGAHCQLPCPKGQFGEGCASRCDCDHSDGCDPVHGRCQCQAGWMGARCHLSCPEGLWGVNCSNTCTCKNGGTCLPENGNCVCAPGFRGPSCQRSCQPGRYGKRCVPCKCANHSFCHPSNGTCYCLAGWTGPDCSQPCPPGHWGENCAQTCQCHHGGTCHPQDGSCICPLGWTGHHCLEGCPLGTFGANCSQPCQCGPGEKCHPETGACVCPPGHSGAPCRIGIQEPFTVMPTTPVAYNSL

PEAR1-ECD–His (human) [3] = target: T2, PEAR1-ECD–His (human); assay: pull-down; PEAR1-ECD–His with the supernatant of MDA-MB-231 cells, with or without 20 μg/mL simtuzumab; only the target purified

binding [1] | binding (PEAR1-ECD–His (human) [2]) | binding (PEAR1-ECD–His (human) [3]) | Substance
binds | – | – | LOXL2 protein, recombinant (full-length LOXL2 protein) (from UniProt Q9Y4K0 26-774) (ligand)
– | binds | binds | Lysyl oxidase–like protein 2 (LOXL2), secreted by MDA-MB-231 cells (from UniProt Q9Y4K0 26-774) (ligand)
